T1: Cyclin B3 (mouse (endogenous in MII oocytes)) (UniProt Q810T2)
T1 sequence: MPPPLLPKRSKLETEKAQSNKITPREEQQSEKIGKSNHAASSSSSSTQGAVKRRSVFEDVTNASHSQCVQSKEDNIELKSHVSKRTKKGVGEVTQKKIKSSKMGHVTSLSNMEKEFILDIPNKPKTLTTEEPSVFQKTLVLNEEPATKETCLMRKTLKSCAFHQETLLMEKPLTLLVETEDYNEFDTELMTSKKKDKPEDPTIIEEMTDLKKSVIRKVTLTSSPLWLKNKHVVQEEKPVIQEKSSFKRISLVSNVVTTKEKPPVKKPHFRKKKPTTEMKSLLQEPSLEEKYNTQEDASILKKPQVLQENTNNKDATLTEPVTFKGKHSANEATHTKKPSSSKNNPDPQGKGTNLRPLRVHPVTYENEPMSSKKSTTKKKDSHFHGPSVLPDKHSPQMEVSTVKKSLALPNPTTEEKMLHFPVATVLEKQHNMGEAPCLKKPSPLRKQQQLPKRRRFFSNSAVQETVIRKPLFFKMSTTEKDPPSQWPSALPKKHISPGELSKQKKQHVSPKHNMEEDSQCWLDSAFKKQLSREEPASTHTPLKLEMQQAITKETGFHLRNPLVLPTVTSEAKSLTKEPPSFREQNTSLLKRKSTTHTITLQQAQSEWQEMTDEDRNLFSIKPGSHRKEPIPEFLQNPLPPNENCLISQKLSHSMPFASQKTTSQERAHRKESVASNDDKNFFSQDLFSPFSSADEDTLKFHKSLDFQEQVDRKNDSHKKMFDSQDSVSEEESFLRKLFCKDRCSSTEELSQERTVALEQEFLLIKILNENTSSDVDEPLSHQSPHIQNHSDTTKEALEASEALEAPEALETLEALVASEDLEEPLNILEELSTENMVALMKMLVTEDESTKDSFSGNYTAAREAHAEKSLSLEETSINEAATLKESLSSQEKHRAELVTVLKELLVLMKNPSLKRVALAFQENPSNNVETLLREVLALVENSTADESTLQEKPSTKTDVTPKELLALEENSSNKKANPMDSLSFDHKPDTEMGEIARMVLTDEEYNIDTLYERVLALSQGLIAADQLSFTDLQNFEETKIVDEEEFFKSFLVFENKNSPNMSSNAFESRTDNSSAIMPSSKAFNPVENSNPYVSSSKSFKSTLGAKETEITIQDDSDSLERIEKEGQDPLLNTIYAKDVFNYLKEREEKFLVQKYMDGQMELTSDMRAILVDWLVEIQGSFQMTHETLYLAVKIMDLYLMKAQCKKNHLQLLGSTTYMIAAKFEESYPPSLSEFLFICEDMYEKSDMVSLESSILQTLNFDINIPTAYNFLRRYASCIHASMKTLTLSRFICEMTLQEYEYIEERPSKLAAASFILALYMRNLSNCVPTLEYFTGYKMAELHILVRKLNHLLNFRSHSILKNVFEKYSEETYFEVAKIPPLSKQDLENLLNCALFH

Amino acid sequences for entries named in this document (tags omitted).
UniProt Q8C863: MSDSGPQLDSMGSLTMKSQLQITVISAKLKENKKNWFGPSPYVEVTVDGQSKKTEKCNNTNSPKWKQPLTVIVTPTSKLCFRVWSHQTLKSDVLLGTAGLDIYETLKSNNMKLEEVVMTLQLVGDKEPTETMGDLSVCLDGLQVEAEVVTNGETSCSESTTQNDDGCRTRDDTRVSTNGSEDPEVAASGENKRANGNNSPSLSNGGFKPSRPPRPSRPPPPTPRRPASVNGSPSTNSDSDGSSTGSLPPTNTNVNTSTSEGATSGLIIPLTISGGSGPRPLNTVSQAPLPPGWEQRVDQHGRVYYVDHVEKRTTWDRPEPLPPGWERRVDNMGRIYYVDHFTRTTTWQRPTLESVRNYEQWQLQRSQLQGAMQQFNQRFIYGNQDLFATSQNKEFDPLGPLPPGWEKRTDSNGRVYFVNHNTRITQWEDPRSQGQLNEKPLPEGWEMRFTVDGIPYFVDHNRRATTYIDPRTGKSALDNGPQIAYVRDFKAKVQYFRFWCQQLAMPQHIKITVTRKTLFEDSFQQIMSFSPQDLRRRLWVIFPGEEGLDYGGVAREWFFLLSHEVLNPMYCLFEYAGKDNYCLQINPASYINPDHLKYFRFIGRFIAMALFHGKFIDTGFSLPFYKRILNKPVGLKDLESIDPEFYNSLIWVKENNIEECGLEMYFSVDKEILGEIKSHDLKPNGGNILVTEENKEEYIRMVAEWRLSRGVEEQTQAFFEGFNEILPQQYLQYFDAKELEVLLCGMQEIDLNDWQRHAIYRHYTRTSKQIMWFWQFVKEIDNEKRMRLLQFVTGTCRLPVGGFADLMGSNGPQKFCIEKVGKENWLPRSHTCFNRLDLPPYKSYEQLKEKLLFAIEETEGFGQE
UniProt P62259: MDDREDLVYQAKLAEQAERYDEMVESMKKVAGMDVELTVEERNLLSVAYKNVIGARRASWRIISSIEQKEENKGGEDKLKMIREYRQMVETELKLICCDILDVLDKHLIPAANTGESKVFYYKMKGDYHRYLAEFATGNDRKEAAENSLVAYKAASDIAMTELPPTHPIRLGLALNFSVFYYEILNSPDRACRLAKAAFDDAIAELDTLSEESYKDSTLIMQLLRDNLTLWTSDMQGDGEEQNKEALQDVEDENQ
UniProt P63101: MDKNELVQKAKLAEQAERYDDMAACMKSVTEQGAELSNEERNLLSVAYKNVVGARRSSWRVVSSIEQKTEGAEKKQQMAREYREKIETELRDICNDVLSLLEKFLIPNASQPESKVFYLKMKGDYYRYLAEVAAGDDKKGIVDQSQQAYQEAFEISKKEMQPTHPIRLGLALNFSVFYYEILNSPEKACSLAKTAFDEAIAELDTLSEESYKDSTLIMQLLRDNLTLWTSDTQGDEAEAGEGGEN

B1: Ywhag (protein, UniProt P61982 1-247)
chain: MVDREQLVQKARLAEQAERYDDMAAAMKNVTELNEPLSNEERNLLSVAYKNVVGARRSSWRVISSIEQKTSADGNEKKIEMVRAYREKIEKELEAVCQDVLSLLDNYLIKNCSETQYESKVFYLKMKGDYYRYLAEVATGEKRATVVESSEKAYSEAHEISKEHMQPTHPIRLGLALNYSVFYYEIQNAPEQACHLAKTAFDDAIAELDTLNEDSYKDSTLIMQLLRDNLTLWTSDQQDDDGGEGNN
B2: Ywhab (protein, UniProt Q9CQV8 1-246)
chain: MTMDKSELVQKAKLAEQAERYDDMAAAMKAVTEQGHELSNEERNLLSVAYKNVVGARRSSWRVISSIEQKTERNEKKQQMGKEYREKIEAELQDICNDVLELLDKYLILNATQAESKVFYLKMKGDYFRYLSEVASGENKQTTVSNSQQAYQEAFEISKKEMQPTHPIRLGLALNFSVFYYEILNSPEKACSLAKTAFDEAIAELDTLNEESYKDSTLIMQLLRDNLTLWTSENQGDEGDAGEGEN

No constants are given. Whether binding was seen depends on the method and setting. In cells and extracts the contact can be indirect. Here binding means that the protein was enriched with, or labelled near, the bait; the list need not be complete.

The target of the experiment is T1, Cyclin B3 (mouse (endogenous in MII oocytes)). As to the kind of experiment: affinity purification with mass spectrometry.
For the molecule Itch (from UniProt Q8C863 1-864), the binding result is given as “binds”.
With Ywhae (from UniProt P62259 1-255), the binding result is “binds”.
The value for Ywhaz (from UniProt P63101 1-245) was “binds”.
To B1 belongs “binds”; to B2, “binds”.
